Our source for the binding values is PMC2447832.

No constants are given. Whether binding was seen depends on the method and setting. In cells and extracts the contact can be indirect. Some binding calls cover weakened binding; strength is not graded here. Tags and fused reporters may be left off the sequences shown.

The target of one assay is T1, HA-tagged LHX9α (mouse) (UniProt Q9WUH2).
T1 sequence: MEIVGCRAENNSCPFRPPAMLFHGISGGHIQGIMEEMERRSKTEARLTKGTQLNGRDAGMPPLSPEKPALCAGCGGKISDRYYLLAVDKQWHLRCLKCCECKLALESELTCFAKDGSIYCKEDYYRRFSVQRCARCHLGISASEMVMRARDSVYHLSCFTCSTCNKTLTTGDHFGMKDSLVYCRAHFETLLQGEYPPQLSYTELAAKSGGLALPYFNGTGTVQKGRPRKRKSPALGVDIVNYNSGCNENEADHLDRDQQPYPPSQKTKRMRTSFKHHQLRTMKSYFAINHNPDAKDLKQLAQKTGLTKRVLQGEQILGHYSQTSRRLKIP
Nature of the assay: co-IP; HEK293 cells co-transfected with pCS2+HA-Lhx9 and a FLAG-tagged partner; cleared lysates in TNN-plus buffer (Tris HCl pH 7.5, 150 mM NaCl, 0.5% Igepal, 5 mM EDTA, protease inhibitor) on Anti-HA Affinity Matrix for 2 h in a cold room, 4 washes; Western blot with anti-FLAG M2 peroxidase conjugate. On the technique in general: A western blot detects proteins with antibodies after separation by electrophoresis.

Another assay concerns the target T2, LHX9β (mouse) (UniProt Q9WUH2).
T2 sequence: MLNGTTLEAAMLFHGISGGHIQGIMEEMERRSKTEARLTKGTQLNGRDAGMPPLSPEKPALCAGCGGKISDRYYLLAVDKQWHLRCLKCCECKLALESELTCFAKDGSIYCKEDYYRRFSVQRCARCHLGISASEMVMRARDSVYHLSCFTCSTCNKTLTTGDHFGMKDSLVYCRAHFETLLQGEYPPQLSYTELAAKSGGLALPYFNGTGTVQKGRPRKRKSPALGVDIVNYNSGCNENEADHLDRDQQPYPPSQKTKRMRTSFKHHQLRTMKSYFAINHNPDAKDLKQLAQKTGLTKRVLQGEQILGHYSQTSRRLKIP
Nature of the assay: co-IP; IP-Western analysis (Fig 7) as told for LHX9β in a heading and the discussion; no LHX9β construct or set-up is described.

B1: FLAG-tagged ISL1β (protein, UniProt P61372-2 1-326)
chain: MGDMGDPPKKKRLISLCVGCGNQIHDQYILRVSPDLEWHAACLKCAECNQYLDESCTCFVRDGKTYCKRDYIRLYGIKCAKCSIGFSKNDFVMRARSKVYHIECFRCVACSRQLIPGDEFALREDGLFCRADHDVVERASLGAGDPLSPLHPARPLQMAAEPISARQPALRPHVHKQPEKTTRVRTVLNEKQLHTLRTCYAANPRPDALMKEQLVEMTGLSPRVIRVWFQNKRCKDKKRSIMMKQLQQQQPNDKTANPVEVQSYQPPWKVLSDFALQSDIDQPAFQQLVNFSEGGPGSNSTGSEVASMSSQLPDTPNSMVASPIEA
For B1, the binding entry in the assay with HA-tagged LHX9α (mouse) is listed as “binds”.

B2: FLAG-tagged CITED2 (protein, UniProt O35740 1-269)
chain: MADHMMAMNHGRFPDGTNGLHHHPAHRMGMGQFPSPHHHQQQQPQHAFNALMGEHIHYGAGNMNATSGIRHAMGPGTVNGGHPPSALAPAARFNNSQFMGPPVASQGGSLPASMQLQKLNNQYFNHHPYPHNHYMPDLHPTAGHQMNGTNQHFRDCNPKHSGGSSTPGGAGGSGTPGGSGGTSGGAGGSSAGGSGGGSTMPASVAHVPAAMLPPNVIDTDFIDEEVLMSLVIEMGLDRIKELPELWLGQNEFDFMTDFVCKQQPSRVSC
Consider B2, for which the binding entry in the assay with HA-tagged LHX9α (mouse) and with LHX9β (mouse) was “no binding” each time.

B3: FLAG-tagged ISL1α (protein, UniProt P61372-1 1-349)
chain: MGDMGDPPKKKRLISLCVGCGNQIHDQYILRVSPDLEWHAACLKCAECNQYLDESCTCFVRDGKTYCKRDYIRLYGIKCAKCSIGFSKNDFVMRARSKVYHIECFRCVACSRQLIPGDEFALREDGLFCRADHDVVERASLGAGDPLSPLHPARPLQMAAEPISARQPALRPHVHKQPEKTTRVRTVLNEKQLHTLRTCYAANPRPDALMKEQLVEMTGLSPRVIRVWFQNKRCKDKKRSIMMKQLQQQQPNDKTNIQGMTGTPMVAASPERHDGGLQANPVEVQSYQPPWKVLSDFALQSDIDQPAFQQLVNFSEGGPGSNSTGSEVASMSSQLPDTPNSMVASPIEA
With B3, the binding entry with HA-tagged LHX9α (mouse) was “binds”.
